According to publication PMC3630169:
These are yes or no findings as the source states them, for the method shown. Some binding calls cover weakened binding; strength is not graded here.

Chains of the proteins cited; added tags and fusions are not shown. Residues count along the entry.
UniProt P08603, residues 1107-1231: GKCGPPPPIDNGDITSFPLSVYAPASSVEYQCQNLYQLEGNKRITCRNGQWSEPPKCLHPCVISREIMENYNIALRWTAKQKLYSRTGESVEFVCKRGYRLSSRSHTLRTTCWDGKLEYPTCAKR
UniProt P01024, residues 996-1287: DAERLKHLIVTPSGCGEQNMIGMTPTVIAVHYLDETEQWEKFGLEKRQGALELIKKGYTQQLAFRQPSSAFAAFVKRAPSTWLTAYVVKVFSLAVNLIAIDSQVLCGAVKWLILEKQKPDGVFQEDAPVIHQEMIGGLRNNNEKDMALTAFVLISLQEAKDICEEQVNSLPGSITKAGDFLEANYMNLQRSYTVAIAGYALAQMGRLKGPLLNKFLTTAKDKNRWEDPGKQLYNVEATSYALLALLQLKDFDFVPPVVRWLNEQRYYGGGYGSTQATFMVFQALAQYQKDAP

Key:
[1] = molecular target: wild type FH19-20 (recombinant fragment of factor H domains 19–20) (human) (UniProt P08603); assay: radioligand binding; solid phase OspE or FhbA, ^125I-FH19-20 with increasing concentrations of C3d, heparin or unlabelled FH19-20; 37°C, 60 min, PBS; both purified
[2] = molecular target: wild type FH19-20 (recombinant fragment of factor H domains 19–20) (human) (UniProt P08603); assay: radioligand binding; solid phase Tuf, ^125I-FH19-20 with increasing concentrations of C3d, heparin or unlabelled FH19-20; blocking and washing in 50% PBS; 37°C, 60 min; both purified

C3d (from UniProt P01024) (domain or fragment)
binding [1]: binds
binding [2]: binds
